Article PMC10411476
No constants are given. Whether binding was seen depends on the method and setting. Binding seen in cells or lysates may run through a third protein. Some binding calls cover weakened binding; strength is not graded here.

Sequences of proteins named here, by UniProt entry; tags and fusion partners are left off.
UniProt P40763: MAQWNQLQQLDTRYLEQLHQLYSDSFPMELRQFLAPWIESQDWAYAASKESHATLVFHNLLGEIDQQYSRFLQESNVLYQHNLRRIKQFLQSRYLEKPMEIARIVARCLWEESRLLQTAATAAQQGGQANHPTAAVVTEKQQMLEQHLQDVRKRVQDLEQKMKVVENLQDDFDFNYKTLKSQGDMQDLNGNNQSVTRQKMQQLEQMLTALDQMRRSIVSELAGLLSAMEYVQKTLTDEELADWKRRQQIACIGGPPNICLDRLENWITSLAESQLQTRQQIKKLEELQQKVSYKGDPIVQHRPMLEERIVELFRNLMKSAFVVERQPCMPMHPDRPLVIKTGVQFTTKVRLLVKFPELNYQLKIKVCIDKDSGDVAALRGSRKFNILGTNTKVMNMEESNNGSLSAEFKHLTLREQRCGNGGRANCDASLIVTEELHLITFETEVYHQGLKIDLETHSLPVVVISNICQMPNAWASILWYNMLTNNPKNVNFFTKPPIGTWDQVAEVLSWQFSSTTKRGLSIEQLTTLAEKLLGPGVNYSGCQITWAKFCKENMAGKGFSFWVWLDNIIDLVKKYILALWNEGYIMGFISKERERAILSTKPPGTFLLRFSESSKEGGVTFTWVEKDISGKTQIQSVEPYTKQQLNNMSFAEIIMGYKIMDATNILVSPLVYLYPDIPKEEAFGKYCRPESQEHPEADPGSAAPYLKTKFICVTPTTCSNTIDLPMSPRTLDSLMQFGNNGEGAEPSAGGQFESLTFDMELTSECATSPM

Target: T1, SET domain containing 7 (SETD7) (human (endogenous in T24 and UMUC3)) (UniProt Q8WTS6)
T1 sequence: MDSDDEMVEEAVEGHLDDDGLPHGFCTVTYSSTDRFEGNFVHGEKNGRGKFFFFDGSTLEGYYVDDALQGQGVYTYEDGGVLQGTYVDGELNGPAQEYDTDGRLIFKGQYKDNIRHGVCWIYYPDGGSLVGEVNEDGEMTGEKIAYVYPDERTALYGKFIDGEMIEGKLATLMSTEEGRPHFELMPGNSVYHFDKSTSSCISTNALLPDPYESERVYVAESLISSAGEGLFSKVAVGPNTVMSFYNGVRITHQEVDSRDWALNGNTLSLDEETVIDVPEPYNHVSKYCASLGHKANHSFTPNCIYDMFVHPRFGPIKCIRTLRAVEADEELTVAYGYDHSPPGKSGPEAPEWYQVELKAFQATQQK
Experiment: co-IP; IP/CO-IP Kit (Absin); immunoprecipitation with anti-SETD7 antibody (1:120, Abcam) overnight at 4 °C, western blot with anti-STAT3; T24 and UMUC3 cells

binding: binds
Substance: STAT3 (from UniProt P40763 1-770)
